In experiment [1] the target is T1, WD repeat-containing protein 1 (human (endogenous in PANC1 and AsPC1)) (UniProt O75083).
T1 sequence: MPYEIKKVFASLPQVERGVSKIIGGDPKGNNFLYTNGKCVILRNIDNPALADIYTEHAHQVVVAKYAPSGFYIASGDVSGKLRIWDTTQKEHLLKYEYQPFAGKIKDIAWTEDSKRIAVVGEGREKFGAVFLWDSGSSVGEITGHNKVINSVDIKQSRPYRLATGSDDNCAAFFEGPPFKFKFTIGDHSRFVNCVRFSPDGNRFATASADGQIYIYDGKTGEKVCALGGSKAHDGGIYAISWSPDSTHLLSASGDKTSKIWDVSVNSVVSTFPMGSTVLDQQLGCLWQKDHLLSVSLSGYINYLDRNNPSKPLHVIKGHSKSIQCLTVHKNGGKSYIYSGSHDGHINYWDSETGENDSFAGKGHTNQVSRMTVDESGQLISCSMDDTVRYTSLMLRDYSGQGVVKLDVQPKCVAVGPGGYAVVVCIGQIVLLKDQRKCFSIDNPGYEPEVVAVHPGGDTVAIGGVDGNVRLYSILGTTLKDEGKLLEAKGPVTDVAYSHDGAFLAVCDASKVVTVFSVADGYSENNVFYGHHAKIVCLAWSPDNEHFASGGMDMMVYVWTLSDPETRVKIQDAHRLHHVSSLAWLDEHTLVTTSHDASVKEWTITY
As to the kind of experiment: co-IP; lysates of PANC1 and AsPC1 cells in IP lysis buffer, pre-cleared with Protein G-agarose, primary antibodies 2 h at 4 °C, Protein G-agarose overnight at 4 °C, washed three times with 1×PBS, Western blotting; USP7 with β-Catenin in sh-Ctrl and sh-WDR1-1 cells.

By UniProt entry, the sequences of proteins in these tests, tags left out.
UniProt P35222: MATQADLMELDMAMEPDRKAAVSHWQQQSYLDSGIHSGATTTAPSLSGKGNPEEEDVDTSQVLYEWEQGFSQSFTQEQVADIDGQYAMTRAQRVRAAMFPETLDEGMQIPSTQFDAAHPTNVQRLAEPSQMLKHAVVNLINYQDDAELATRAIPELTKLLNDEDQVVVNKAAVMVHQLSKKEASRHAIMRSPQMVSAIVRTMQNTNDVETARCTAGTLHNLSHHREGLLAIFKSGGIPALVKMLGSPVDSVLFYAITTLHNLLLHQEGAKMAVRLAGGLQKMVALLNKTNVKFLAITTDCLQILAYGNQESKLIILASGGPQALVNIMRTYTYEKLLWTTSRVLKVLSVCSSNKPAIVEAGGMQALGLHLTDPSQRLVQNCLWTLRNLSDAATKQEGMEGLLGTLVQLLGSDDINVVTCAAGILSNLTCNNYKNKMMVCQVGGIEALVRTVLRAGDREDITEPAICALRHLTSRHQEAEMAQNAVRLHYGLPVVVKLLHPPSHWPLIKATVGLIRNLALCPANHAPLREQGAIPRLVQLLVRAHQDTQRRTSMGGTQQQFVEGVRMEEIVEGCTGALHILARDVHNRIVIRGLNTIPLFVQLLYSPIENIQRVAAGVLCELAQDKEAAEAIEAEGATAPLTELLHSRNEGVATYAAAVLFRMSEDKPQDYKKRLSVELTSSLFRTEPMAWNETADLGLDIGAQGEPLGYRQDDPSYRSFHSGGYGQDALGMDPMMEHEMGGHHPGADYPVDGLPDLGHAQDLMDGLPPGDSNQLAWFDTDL
UniProt Q93009: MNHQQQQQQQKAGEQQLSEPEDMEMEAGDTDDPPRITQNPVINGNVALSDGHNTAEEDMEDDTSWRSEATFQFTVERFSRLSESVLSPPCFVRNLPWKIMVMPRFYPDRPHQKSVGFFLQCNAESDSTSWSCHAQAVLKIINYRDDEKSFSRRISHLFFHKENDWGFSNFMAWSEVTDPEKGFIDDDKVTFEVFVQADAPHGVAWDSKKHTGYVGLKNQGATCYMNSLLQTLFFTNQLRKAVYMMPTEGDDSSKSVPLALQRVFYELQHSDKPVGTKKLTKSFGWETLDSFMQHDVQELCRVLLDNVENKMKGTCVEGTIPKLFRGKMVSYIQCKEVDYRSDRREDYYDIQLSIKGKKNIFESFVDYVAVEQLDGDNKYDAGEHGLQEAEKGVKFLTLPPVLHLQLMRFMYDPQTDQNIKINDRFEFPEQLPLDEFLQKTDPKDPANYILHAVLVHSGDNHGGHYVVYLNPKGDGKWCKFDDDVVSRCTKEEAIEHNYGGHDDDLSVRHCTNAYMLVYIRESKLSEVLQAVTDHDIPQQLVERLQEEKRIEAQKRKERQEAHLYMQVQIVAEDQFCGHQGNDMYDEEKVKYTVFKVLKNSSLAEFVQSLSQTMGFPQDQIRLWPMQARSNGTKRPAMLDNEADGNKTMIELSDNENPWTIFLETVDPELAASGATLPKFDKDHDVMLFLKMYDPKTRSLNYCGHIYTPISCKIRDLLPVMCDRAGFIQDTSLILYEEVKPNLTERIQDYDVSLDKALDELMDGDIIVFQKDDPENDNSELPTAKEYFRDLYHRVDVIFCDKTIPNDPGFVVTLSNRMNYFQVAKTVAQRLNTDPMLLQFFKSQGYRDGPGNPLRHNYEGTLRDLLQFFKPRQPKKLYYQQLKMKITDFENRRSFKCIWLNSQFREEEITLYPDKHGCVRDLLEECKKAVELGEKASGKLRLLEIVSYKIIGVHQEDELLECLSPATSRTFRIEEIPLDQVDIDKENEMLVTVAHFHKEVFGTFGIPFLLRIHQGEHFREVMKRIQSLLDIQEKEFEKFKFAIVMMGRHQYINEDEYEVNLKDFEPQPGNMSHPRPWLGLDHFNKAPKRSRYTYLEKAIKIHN

Experiment [2] deals with T1, WD repeat-containing protein 1 (human (endogenous in PANC1 and AsPC1)). As to the kind of experiment: proximity ligation; in situ PLA in PANC1 and AsPC1 cells fixed with 4% formaldehyde and permeabilised with 0.05% Triton X-100; primary antibodies against WDR1 and USP7 from two different species.

We go through two substances from paper PMC7492282.

No constants are given. Whether binding was seen depends on the method and setting. Binding seen in cells or lysates may run through a third protein. Some binding calls cover weakened binding; strength is not graded here.

Regarding β-Catenin (from UniProt P35222 1-781), the binding result in experiment [1] is given as “binds”.
With “USP7 (from UniProt Q93009 1-1102) (enzyme)”, the binding entry in experiment [2] and in experiment [1] was “binds” each time.
